The values that follow come from the supplement of paper PMC12889115.

In this experiment the test system is Salmonella enterica serovar Typhimurium SL1344. In words: bacterial growth OD600 after 18 h with compound and polymyxin B; higher = more bacterial growth (less inhibition). The note with it: 50 µM, Mueller-Hinton broth.

The structures appear in SMILES notation. Some of the results follow. Values are raw readings; no control value is given beside them.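 First-pass screen: polymyxin B was added at a level that permeabilizes the Salmonella outer membrane while sparing the inner membrane. DMSO wells, with and without polymyxin B, defined maximum growth. Because plates differed from one another, each plate's data were ranked separately and the compounds with the lowest OD600 were carried forward as hits.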

As to `CC1(C)[C@H]2CC=C(CCNC3CCN(c4ccc(C(=O)NCc5cccnc5)cc4)CC3)[C@@H]1C2`, for the setting “polymyxin B 0.75 µg/mL”, the “bacterial growth OD600” value stood at 0.7.
As to `CN(C)c1ncc2c(n1)CCCC2NC1CCCC1` (centres undefined), the “bacterial growth OD600” value (polymyxin B 1 µg/mL) was 0.909.
`CCN(Cc1ccccc1)C(=O)CCc1nnc(CCc2ccc(OC)cc2)o1`: the “bacterial growth OD600” value (polymyxin B 1 µg/mL) was determined as 0.795.
Turning to `CCOC(=O)N1CCN(Cc2nc(-c3ccc(C(F)(F)F)cc3)oc2C)CC1`, the “bacterial growth OD600” value (polymyxin B 1 µg/mL) was 0.445.
On to `COCCN(C(=O)CC1(c2ccccc2)CC(=O)N(CCCOc2cccnc2)C1=O)C(C)C` (centres undefined), for which the “bacterial growth OD600” value (polymyxin B 0.75 µg/mL) is 0.825.
Consider `COCC(=O)N1CCC(Oc2ccc(C(=O)N3CCC(Cc4ccccc4)CC3)cc2)CC1`, for which the “bacterial growth OD600” value (polymyxin B 1 µg/mL) amounted to 0.806.
Regarding `COC(C(=O)NCc1c(C)ncc2c1CCN(C(=O)CCn1nc(C)cc1C)C2)c1ccccc1` (centres undefined), the “bacterial growth OD600” value (polymyxin B 0.75 µg/mL) amounted to 0.729.
As to `CN(Cc1nccs1)c1ccc(-c2nc(Cc3ccc(F)cc3)no2)cn1`, the “bacterial growth OD600” value (polymyxin B 0.75 µg/mL) came out at 0.364.
Same read-out and setting: in the case of `Cc1ccccc1CN1CCCC(CO)(Cc2ccc(F)cc2)C1` (centres undefined) it was 0.725.
As for `O=C1CCC(C(=O)N2CCCCCC2)CN1CCc1ccc(Cl)cc1` (centres undefined), the “bacterial growth OD600” value (polymyxin B 1 µg/mL) was 0.999.
For the molecule `CCNC(=O)N1CCC(C2CCN(Cc3cccc(F)c3F)CC2)C1` (centres undefined), for the setting “polymyxin B 0.75 µg/mL”, the “bacterial growth OD600” value came out at 0.891.
Same read-out and setting: in the case of `Cc1oc(-c2cccc(NC(=O)CCc3cccnc3)c2)nc1CNC(=O)c1ccc2c(c1)OCCO2` it was 0.816; in that of `COc1ccc(CN2CCc3nnc(C(CC(C)C)NC(=O)c4cc(C)cc(C)c4)n3CC2)c(O)c1` (centres undefined), 0.621.
Take `CC(=O)CCC(=O)N1CCCC(C(=O)Nc2ccc(-c3cccc(F)c3)cc2)C1` (centres undefined): the “bacterial growth OD600” value (polymyxin B 1 µg/mL) was determined as 0.935.
On to `Cc1ccccc1-n1ncc(C(C)NC(=O)CN2CCOc3ccccc3C2)c1C` (centres undefined), for which the “bacterial growth OD600” value (polymyxin B 1 µg/mL) was 0.938.
For the molecule `Cc1csc(CNc2nncc(-c3cc4ccccc4o3)n2)n1`, the “bacterial growth OD600” value (polymyxin B 1 µg/mL) turned out to be 1.21.
Consider `CCn1cc(CN2CCC(C(Cc3ccccc3)N(CCOC)Cc3cccnc3)CC2)c(C)n1` (centres undefined), for which, for the setting “polymyxin B 0.75 µg/mL”, the “bacterial growth OD600” value came out at 0.833.
Consider `CCN1CCCC1CN(CC1CCN(CCOC)CC1)C(=O)c1cnc(C)cn1` (centres undefined), for which the “bacterial growth OD600” value (polymyxin B 0.75 µg/mL) was 0.784.
On the same count and under the same terms, under `COCCN(C)C(=O)C1CCN(c2nc(C)c3cc(C)ccc3n2)CC1` stands 0.816.
